Measured values: US20100216853A1
Results are given in words; binding and its absence hold for the method and conditions named. Binding seen in cells or lysates may run through a third protein. Some binding calls cover weakened binding; strength is not graded here.

Protein sequences, listed by entry. Tags and fused reporters are not part of them. Lines headed by an entry give the natural chain unless they say otherwise; changes in a name come on top.
UniProt Q09472: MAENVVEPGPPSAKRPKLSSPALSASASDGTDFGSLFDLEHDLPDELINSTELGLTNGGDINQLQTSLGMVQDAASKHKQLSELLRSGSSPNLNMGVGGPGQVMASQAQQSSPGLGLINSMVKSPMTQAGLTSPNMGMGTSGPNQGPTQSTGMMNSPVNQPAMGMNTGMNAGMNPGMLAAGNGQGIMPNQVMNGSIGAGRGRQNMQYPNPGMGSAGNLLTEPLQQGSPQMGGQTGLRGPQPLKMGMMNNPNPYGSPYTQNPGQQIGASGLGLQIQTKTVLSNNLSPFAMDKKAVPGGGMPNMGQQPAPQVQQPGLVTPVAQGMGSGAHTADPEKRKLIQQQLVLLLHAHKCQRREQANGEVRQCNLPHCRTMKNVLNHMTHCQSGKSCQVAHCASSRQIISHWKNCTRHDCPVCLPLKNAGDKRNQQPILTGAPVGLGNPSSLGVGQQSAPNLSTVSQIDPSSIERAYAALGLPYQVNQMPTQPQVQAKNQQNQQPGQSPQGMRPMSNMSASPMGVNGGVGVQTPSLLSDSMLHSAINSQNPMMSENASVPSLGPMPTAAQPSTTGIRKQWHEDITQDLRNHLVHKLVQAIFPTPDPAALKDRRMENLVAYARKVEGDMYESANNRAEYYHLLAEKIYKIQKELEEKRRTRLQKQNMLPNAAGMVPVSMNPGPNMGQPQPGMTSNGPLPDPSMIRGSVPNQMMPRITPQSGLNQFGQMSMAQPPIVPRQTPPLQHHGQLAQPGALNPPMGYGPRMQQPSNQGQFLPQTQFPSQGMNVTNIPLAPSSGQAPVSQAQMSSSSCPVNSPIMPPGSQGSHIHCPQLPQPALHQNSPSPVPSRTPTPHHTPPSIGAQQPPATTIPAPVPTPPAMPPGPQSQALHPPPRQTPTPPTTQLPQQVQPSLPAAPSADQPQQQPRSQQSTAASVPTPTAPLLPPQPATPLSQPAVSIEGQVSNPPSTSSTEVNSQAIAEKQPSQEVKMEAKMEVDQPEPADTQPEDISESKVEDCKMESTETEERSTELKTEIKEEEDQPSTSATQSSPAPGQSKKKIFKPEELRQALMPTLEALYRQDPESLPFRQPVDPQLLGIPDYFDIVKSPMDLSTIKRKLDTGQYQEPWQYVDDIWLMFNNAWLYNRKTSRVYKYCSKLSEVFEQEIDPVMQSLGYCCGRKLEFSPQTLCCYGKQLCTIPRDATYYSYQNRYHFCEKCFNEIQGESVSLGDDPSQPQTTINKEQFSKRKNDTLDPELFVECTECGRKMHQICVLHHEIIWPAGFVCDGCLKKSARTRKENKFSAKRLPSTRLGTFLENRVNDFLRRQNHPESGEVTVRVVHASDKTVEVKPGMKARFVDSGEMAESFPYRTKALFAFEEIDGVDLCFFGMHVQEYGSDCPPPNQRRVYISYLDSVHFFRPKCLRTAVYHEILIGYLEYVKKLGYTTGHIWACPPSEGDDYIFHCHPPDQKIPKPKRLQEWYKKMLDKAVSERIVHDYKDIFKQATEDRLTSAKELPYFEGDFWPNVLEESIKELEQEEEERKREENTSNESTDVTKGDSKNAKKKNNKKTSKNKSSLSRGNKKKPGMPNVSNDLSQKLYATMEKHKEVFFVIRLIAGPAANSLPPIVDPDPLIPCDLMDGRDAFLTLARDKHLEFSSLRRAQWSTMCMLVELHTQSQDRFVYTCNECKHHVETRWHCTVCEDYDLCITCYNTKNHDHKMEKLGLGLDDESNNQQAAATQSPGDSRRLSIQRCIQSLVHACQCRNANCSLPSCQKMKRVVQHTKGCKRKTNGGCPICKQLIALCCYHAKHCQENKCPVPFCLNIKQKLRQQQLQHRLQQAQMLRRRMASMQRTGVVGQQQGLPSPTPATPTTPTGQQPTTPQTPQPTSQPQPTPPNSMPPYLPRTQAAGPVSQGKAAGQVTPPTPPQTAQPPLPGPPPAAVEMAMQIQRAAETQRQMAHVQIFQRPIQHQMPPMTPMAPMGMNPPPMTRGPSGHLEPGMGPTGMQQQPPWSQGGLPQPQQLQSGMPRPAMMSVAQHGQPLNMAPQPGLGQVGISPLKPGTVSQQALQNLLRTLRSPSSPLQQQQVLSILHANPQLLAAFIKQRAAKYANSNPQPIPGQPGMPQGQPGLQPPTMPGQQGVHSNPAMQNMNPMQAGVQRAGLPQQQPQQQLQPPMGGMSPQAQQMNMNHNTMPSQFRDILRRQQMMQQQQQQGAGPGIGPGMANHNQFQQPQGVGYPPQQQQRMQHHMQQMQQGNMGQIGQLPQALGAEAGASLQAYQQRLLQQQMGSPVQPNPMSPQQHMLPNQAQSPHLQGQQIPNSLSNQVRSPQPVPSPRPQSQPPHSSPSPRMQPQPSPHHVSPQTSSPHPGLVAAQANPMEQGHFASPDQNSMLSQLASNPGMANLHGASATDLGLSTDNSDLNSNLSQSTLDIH

How the values were obtained:
[1] = molecular target: p300 HAT domain C-terminal subdomain (about 11 kDa protease-resistant fragment) (human) (UniProt Q09472); test: co-purification and crystal structure, with Lys-CoA
[2] = molecular target: p300 HAT domain C-terminal subdomain (about 11 kDa protease-resistant fragment) (human) (UniProt Q09472); test: co-purification through two chromatographic separations
[3] = molecular target: p300 HAT domain C-terminal subdomain (about 11 kDa protease-resistant fragment) (human) (UniProt Q09472); test: co-purification and crystal structure, retold in Example 8
[4] = molecular target: p300 HAT domain C-terminal subdomain (about 11 kDa protease-resistant fragment) (human) (UniProt Q09472); test: co-purification of the heterodimeric p300 HAT complex in the presence of Lys-CoA

Measured: binding

p300 HAT domain N-terminal subdomain (about 28 kDa protease-resistant fragment) (from UniProt Q09472 1287-1522) (enzyme)
binds: all assays above
